Measured values: paper PMC12519263 (ACS Pharmacology & Translational Science, 2025)
Strings that start with PEPTIDE1 are HELM notation: dots part the residues, brackets hold end groups and non-standard residues.

Assay: general procedure: peptide synthesis; H-Gly-2-ClTrt resin (Novabiochem); HATU, HOAt, DIPEA (conjugation)
Details: conjugation step

Substance	final purity (method not given) (HPLC) [%]	final HPLC purity (700 nm) [%]	conjugation yield (two-step from 10) [% two-step yield from 10%]
PEPTIDE1{[Amp].L.R.G.D.L}|CHEM1{[TzPEG3Nint]}$PEPTIDE1,PEPTIDE1,1:R1-6:R2|PEPTIDE1,CHEM1,1:R3-1:R1$$$V2.0	>99.5		
PEPTIDE1{[Amp].L.R.G.D.L}|PEPTIDE2{[ZW800-1].[Ahx]}$PEPTIDE1,PEPTIDE1,1:R1-6:R2|PEPTIDE1,PEPTIDE2,1:R3-2:R2$$$V2.0		>98	55
